Part of at least one peptide drawing is inferred or uncertain, most often the ends. Where a SMILES comes first, the peptide text is derived from it. [ ]: non-standard residue; d: D form. ξ: configuration not given here. ξαMeF = CC(N)(Cc1ccccc1)C(=O)O; Aib = CC(C)(N)C(=O)O
Legend:
[1] = system: SD-STZ rats (Sprague-Dawley rats rendered diabetic with streptozotocin); experiment: Immunohistochemistry and quantitative analysis of neovascular tuft formations in retinas of SD-STZ rats; type: in vivo, rat; details: daily administration, peptide groups C and E, insulin alone group D
From the text: 5) subcutaneously twice a day.
For each experimental condition, the quantitative data originated from 20 retinas of 10 different rats.
Table 5—Immunohistochemical tests on retinas and quantitative analysis of neovascular tuft formations. The state of vascularization of the retina of the treated animals was studied as reported in example 2. For each experimental condition, the quantitative data originated from 20 retinas of 10 different rats. […] The areas of neovascularization are expressed as the ratio between the area of neovascularization present in the animals which are not yet diabetic (Group A≈0.1% of the retinal area) and that of the group. […] 5) subcutaneously twice a day.

[2] = system: DP BB rats (Diabetes-Prone BioBreeding rats); experiment: CD31 immunohistochemistry and quantitative analysis of neovascular tuft formations in retinas of DP BB rats; type: in vivo, rat; details: daily s.c., peptide groups E, F, insulin alone group C, peptide+insulin group D
Protocol: The state of vascularization of the retina of the treated animals was studied on the whole retinas, using antibodies directed against CD31 (BD Biosciences, San Diego, Calif., USA), an important marker for the endothelial cells. The immunohistochemical tests on the retinas and quantitative analysis of the neovascular tuft formations, vascular and avascular areas, were conducted as reported in the literature (Exp Eye Res. 2013; 111:27-35; Invest Ophthalmol Vis Sci. 2012; 53:2181-2192; J Neurochem. 2011; 119:1317-1329; Invest Ophthalmol Vis Sci. 2006; 47:2125-2134). […]
The retinal vascularization images were acquired with an epifluorescence microscope (Eclipse E800; Nikon Corp., Amsterdam, Netherlands) using a digital camera converter (SD-Filc camera; Nikon Corp.). The electronic images were processed with image-processing software (Adobe Photoshop; Adobe Systems, Inc., Mountain View, Calif., USA) to allow quantitative analysis of the results. For each experimental condition, the quantitative data originated from 20 retinas of 10 different rats.
Table 3—Immunohistochemical tests on retinas and quantitative analysis of neovascular tuft formations. […] The electronic images were processed with image-processing software (Adobe Photoshop; Adobe Systems, Inc., Mountain View, Calif., USA) to allow quantitative analysis of the results. […]

| Structure (SMILES) | effect on retinal vascular damage / NTA, in words (Table 5) [1] | effect on retinal vascular damage / NTA, in words (Table 3) [2] |
| --- | --- | --- |
| CC(=O)NC(C)(C)C(=O)N[C@@H](CCCNC(=N)N)C(=O)NC(C)(C)C(=O)N[C@@H](CCCNC(=N)N)C(=O)NC(C)(Cc1ccccc1)C(N)=O (stereo partly drawn) [Ac-Aib-Arg-Aib-Arg-α(Me)Phe-NH2] (Ac-[Aib]R[Aib]R[ξαMeF]-NH2) | prevent the formation of retinal vascular damage |  |
| CC(=O)N[C@@H](CCCNC(=N)N)C(=O)NC(C)(C)C(=O)N[C@@H](CCCNC(=N)N)C(=O)NC(C)(Cc1ccccc1)C(N)=O (stereo partly drawn) [Ac-Arg-Aib-Arg-α(Me)Phe-NH2] (Ac-R[Aib]R[ξαMeF]-NH2) |  | prevent the formation of retinal vascular damage |

— patent US20180326014A1, “PHARMACEUTICAL FORMULATIONS FOR THE TREATMENT OF DIABETES” (KALEYDE PHARMACEUTICALS AG, priority 2016, published 2018)
